# Measured values published in PubChem BioAssay AID624297 (National Center for Advancing Translational Sciences (NCATS), 2012).
# Screen size: about 340,000 compounds; about 6,200 (1.8%) were called active. Inconclusive means that the source gave no clear call. Such entries were picked first, then a sample of the others. Calls come from the whole dose curve; as a rule, active = well fitted activation curve with a large enough effect; inconclusive = small, poorly fitted or top-dose-only effect; inactive = no such curve, though single readings can be large or run the other way. Potencies of inconclusive entries are doubtful fits and often do not repeat.
# Assay: A quantitative high throughput screen for small molecules that induce DNA re-replication in SW480 colon adenocarcinoma cells. Note: nearly all actives have a fitted effect of over 55% in size.
# Conditions: Hoechst DNA content imaging, 48 h; series mostly up to 46.1 µM
# How it was run: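 Per well, 250 cells were exposed to pinned compound for 48 hr. Nuclear DNA was visualised with Hoechst (40 min, 37 C) and total object intensity recorded by fluorescence scanning.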
# Potency is the fitted concentration of half-maximal effect.
row,Compound,Potency
1,CCN(CC)c1ccc(NC(=O)c2nc3nc(C)cc(C(F)F)n3n2)cc1,inactive
2,C=CCNCCCCOc1ccc(OCc2ccccc2)cc1,active: 20.6 µM
3,COc1ccc(CCNc2nc(N3CCCCC3)nc(N3CCCCC3)n2)cc1OC,"inconclusive: 23.1 µM [activator, partial curve, poor fit]"
4,CCN1C(=O)C(O)(CC(=O)c2ccc(-n3cccc3)cc2)c2ccccc21 (configuration not stated),"inconclusive: 18.4 µM [activator, single point]"
5,CC(C)(C=O)C1=CC(=O)c2ccccc2C1=O,active: 7.31 µM
6,CN(C)CCCNc1cc(C(C)(C)C)nc2c(-c3ccc(Cl)cc3)cnn12,"inconclusive: 20.6 µM [activator, single point]"
7,COCc1cc(C)nc(SCC(=O)Nc2ccc3c(c2)OCO3)c1C#N,"inconclusive: 20.6 µM [activator, partial curve, poor fit]"
8,Cn1cc(C(=O)N/N=C/c2ccc(Br)c([N+](=O)[O-])c2)c2ccccc21,"inconclusive: 0.146 µM [activator, partial curve, poor fit]"
9,Cc1noc(COc2ccccc2OCC(N)=O)n1,"inconclusive: 20.6 µM [activator, single point]"
10,Cc1ccc2nc(SCC(=O)O)nc(C)c2c1,inactive
11,CN(Cc1ccco1)C(=O)CCc1nc2sc3c(c2c(=O)[nH]1)CCCC3,"inconclusive: 29.1 µM [activator, single point]"
12,Cc1[nH]nc(SCC(=O)NC2CCCC2)c1[N+](=O)[O-],"inconclusive: 1.64 µM [activator, partial curve, poor fit]"
13,CC1CCCN(C(=O)c2ccc(S(=O)(=O)N3CCC(c4nc5ccccc5s4)CC3)cc2)C1 (configuration not stated),inactive
14,Cc1ccc(NC(=O)CSCC(N)=O)cc1C,"inconclusive: 29.1 µM [activator, single point]"
15,CN(Cc1ccc(Cl)cc1)C(=O)COC(=O)c1ccc(-c2ccc(O)cc2)cc1,"inconclusive: 25.9 µM [activator, single point]"
16,Cc1cc(N/N=C/c2ccc(F)cc2)nc(-n2nc(C)cc2C)n1,"inconclusive: 20.6 µM [activator, single point]"
17,Cc1[nH][nH]c(=O)c1C(c1c(C)[nH][nH]c1=O)c1cn(Cc2ccc(F)cc2)c2ccccc12,active: 9.2 µM
18,CSC1=N/C(=C\c2ccccc2F)C(=O)S1,"inconclusive: 29.1 µM [activator, single point]"
19,Oc1ccc(-c2n[nH]c(=S)n2-c2ccc3c(c2)OCCO3)c(O)c1,inactive
20,Cc1ccc2nc(Cl)c(C3CC(c4ccco4)=NN3C(=O)CCCC(=O)O)cc2c1 (configuration not stated),"inconclusive: 0.231 µM [activator, full curve, poor fit]"
21,Cc1ccc2cc(C#N)c(N3CCCN(S(=O)(=O)c4ccccc4)CC3)nc2c1,"inconclusive: 20.6 µM [activator, single point]"
22,N#Cc1sc2nc(C3CC3)cc(-c3ccc(Cl)cc3)c2c1N,"inconclusive: 29.1 µM [activator, single point]"
23,C=CCOC(=O)C1=C(C)NC(SCC)=C(C#N)C1c1ccc(Cl)cc1 (configuration not stated),"inconclusive: 29.1 µM [activator, single point]"

# Sorted by molecular weight (rising): part of the list above
row,Compound,Potency
18,CSC1=N/C(=C\c2ccccc2F)C(=O)S1,"inconclusive: 29.1 µM [activator, single point]"
1,CCN(CC)c1ccc(NC(=O)c2nc3nc(C)cc(C(F)F)n3n2)cc1,inactive
6,CN(C)CCCNc1cc(C(C)(C)C)nc2c(-c3ccc(Cl)cc3)cnn12,"inconclusive: 20.6 µM [activator, single point]"

# (more compounds)

row,Compound,Potency
1,CCCCN(C)CCNC(=O)CCn1nc(-c2ccc(Cl)cc2)ccc1=O,inactive
2,Cc1nc(CN(C)C(=O)c2cc(COc3ccc4ncccc4c3)on2)cs1,"inconclusive: 29.1 µM [activator, single point]"
3,Cc1cc(OCCCCCNCCO)ccc1Cl,"inconclusive: 25.9 µM [activator, single point]"
4,COc1ccc(CNC(=O)c2cc(C3CC3)nc3c2cnn3C(C)C)cc1,inactive
5,Cc1nc(NC(=O)CCc2ccccc2)sc1C,"inconclusive: 14.6 µM [activator, single point]"
6,CCn1c(COc2cccc3cccnc23)nnc1SC(F)F,"inconclusive: 6.51 µM [activator, single point]"
7,COc1ccccc1/C=C/C=N/NC(=O)CCn1cnc2ccccc21,active: 20.6 µM
8,CN(C)C(=O)CSc1nc2ccccc2n1CC(=O)N1CCN(c2ccccc2)CC1,"inconclusive: 9.2 µM [activator, partial curve, poor fit]"
9,O=[N+]([O-])c1cccc(C2(O)COc3ccccc3O2)c1 (configuration not stated),inactive
10,O=C(/C=C/c1ccccc1[N+](=O)[O-])c1ccccc1Br,"inconclusive: 3.66 µM [activator, full curve]"
11,CC(=O)N1CCN(c2ccc(NCc3ccc(C(C)C)cc3)cc2)CC1,"inconclusive: 29.1 µM [activator, single point]"
12,O=CN/C=C/c1cc(O)ccc1O,"inconclusive: 25.9 µM [activator, partial curve, poor fit]"
13,CC(C)Cn1c(/C=N/Nc2nc3ccccc3[nH]2)nc2ccccc21,"inconclusive: 5.17 µM [activator, full curve]"
14,COCCN1C(=O)N(c2cccc(C)c2)C(=O)C1CC(=O)Nc1ccc(OC)cc1 (configuration not stated),"inconclusive: 14.6 µM [activator, single point]"
15,COc1ccc2c(c1)C(=O)CC(c1ccccc1)O2 (configuration not stated),"inconclusive: 18.4 µM [activator, single point]"
16,COc1ccccc1-c1cc(C(=O)N2CCN(c3ccccc3OC)CC2)no1,"inconclusive: 29.1 µM [activator, single point]"
17,Cc1cc(C(=O)Nc2sc3c(c2C#N)CCC(C(C)(C)C)C3)no1 (configuration not stated),"inconclusive: 25.9 µM [activator, single point]"
18,Cc1ccc(NC(=O)C2CC2)cc1S(=O)(=O)N1CCOCC1,"inconclusive: 29.1 µM [activator, single point]"
19,COc1ccc(OC)c(C2CC(=O)c3c([nH]c(C(=O)OC(C)C)c3C)C2)c1 (configuration not stated),active: 3.66 µM
20,COc1cccc(C(C)NC(=O)C2CCCC2)c1 (configuration not stated),inactive
21,CCOC(=O)c1c(-c2cccs2)csc1NC(=O)CN1CC(C)OC(C)C1 (configuration not stated),"inconclusive: 32.6 µM [activator, partial curve, poor fit]"
22,O=C(Nc1ccc(C(F)(F)F)cc1)c1cc(-c2cccnc2)nc2ccc(Br)cc12,"inconclusive: 18.4 µM [activator, single point]"
23,O=C(CSc1n[nH]c(-c2ccncc2)n1)Nc1ccccc1,inactive

row,Compound,Potency
1,CC1(C)Cc2c(sc(NC(=O)Cc3ccccc3)c2C#N)CO1,"inconclusive: 29.1 µM [activator, single point]"
2,Cc1onc(-c2ccccc2)c1-c1csc(N/N=C/c2ccccc2Cl)n1,"inconclusive: 29.1 µM [activator, partial curve, poor fit]"
3,COc1ccc(-c2csc3ncnc(N4CCN(S(=O)(=O)c5cccs5)CC4)c23)cc1,"inconclusive: 29.1 µM [activator, partial curve, poor fit]"
4,CC(C)(O)C1=NOC(c2ccccc2)C1 (configuration not stated),"inconclusive: 25.9 µM [activator, single point]"
5,O=C(O)C1CC=CCC1C(=O)N1CCN(c2nc(-c3ccccc3Cl)c3cc(Br)ccc3n2)CC1 (configuration not stated),active: 18.4 µM
6,CC(C)c1ccc(C(C(C(=O)c2ccccc2)N2CCOCC2)N2CCOCC2)cc1 (configuration not stated),inactive
7,Cc1ccc(NS(=O)(=O)c2cccc(C(=O)NCC(c3ccco3)N3CCCC3)c2)cc1 (configuration not stated),"inconclusive: 23.1 µM [activator, single point]"
8,Clc1ccc(Cn2c(/C=C/c3ccco3)nc3ccccc32)cc1,inactive
9,COc1cc(NC(=O)C2CCCN(c3ncnc4c3nc3n4CCCCC3)C2)cc(OC)c1OC (configuration not stated),"inconclusive: 31.6 µM [activator, single point]"
10,O=c1[nH]c(C2CCN(S(=O)(=O)c3ccc(S(=O)(=O)NC4CC4)cc3)CC2)nc2c1nnn2Cc1cccc(F)c1,"inconclusive: 20.6 µM [activator, single point]"
11,CCNC(=O)COC(=O)c1cc(-c2ccco2)nc2ccccc12,"inconclusive: 18.4 µM [activator, partial curve, poor fit]"
12,COc1cc(OC)cc(C(=O)N[C@H](C(=O)NC2CCCc3ccccc32)C(C)C)c1 (some centres not stated),"inconclusive: 4.61 µM [activator, full curve]"
13,O=C(CC1SC(=Nc2ccc(OC(F)F)cc2)N(CCC2=CCCCC2)C1=O)Nc1ccccc1F (configuration not stated),"inconclusive: 29.1 µM [activator, single point]"
14,CCCc1nc(NCCO)c(C#N)c2c1CCCC2,"inconclusive: 1.64 µM [activator, partial curve, poor fit]"
15,CCCc1cc(C(=O)N/N=C/c2ccc(CC)s2)c2ccccc2n1,active: 20.6 µM
16,CCCn1c(N)c(C(=O)CSc2nc3ncc(Cl)cc3[nH]2)c(=O)[nH]c1=O,"inconclusive: 0.206 µM [activator, full curve, poor fit]"
17,COc1ccc(NC(=O)c2ccc(-n3c(C)ccc3C)cc2)c(OC)c1,"inconclusive: 18.4 µM [activator, single point]"
18,CC1OC(CC(=O)O)CC2=C1C(=O)c1c(O)cccc1C2=O (configuration not stated),"inconclusive: 0.82 µM [activator, full curve, poor fit]"
19,O=C(OCC(=O)N1CCC(Cc2ccccc2)CC1)c1cccnc1Cl,inactive
20,NC(CO)C(=O)NNCc1ccc(O)c(O)c1O (configuration not stated),"inconclusive: 0.231 µM [activator, full curve, poor fit]"
21,O=C(NC1CCCC1)c1sc(=S)n2c1[nH]c(=O)c1ccccc12,"inconclusive: 23.1 µM [activator, single point]"
